# Results from PubChem BioAssay AID743255 (National Center for Advancing Translational Sciences (NCATS), 2014).
# The chains behind the UniProt entries cited, without tags or fusion partners. Where a name states a change or a piece, a line headed by the entry shows the natural chain unless it says otherwise.
# UniProt O94782: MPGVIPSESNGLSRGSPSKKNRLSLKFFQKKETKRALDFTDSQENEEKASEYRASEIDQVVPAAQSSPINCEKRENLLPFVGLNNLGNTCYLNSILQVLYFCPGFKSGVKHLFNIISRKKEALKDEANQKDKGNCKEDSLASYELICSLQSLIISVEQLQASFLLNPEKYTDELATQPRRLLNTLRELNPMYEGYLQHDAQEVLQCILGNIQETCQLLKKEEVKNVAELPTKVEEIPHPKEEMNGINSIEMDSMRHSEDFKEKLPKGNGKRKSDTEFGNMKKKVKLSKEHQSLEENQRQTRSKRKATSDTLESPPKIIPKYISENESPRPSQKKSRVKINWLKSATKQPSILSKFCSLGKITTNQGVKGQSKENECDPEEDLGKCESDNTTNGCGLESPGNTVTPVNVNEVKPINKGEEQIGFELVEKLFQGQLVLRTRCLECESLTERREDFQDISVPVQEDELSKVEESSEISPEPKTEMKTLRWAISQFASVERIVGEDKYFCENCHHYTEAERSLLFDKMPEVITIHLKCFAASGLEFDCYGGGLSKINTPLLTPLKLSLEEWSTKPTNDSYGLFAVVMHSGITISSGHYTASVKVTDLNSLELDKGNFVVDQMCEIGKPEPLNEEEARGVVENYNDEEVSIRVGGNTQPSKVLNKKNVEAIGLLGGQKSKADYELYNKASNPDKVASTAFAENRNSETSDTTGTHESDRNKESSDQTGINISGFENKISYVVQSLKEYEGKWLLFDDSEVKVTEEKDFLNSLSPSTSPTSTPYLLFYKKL
# Out of some 390,000 compounds screened, about 910 (0.23%) were called active. Inconclusive results, whose numbers are uncertain, are shown with a selection of clear calls. The call rests on the fitted dose curve; in most records, active means well fitted inhibition curve with a large enough effect; inconclusive means small, poorly fitted or top-dose-only effect; inactive means no such curve, though single readings can be large or run the other way. A potency beside an inconclusive call is a rough fit, not a confirmed value.
# Target: Ubiquitin carboxyl-terminal hydrolase 1 (Homo sapiens) (UniProt O94782)
# Assay: Inhibitors of USP1/UAF1: Primary Screen; further: nearly all actives have a fitted effect of over 60% in size
# Details: recombinant USP1/UAF1, Ub-Rhodamine cleavage fluorescence; series mostly up to 57.1 µM
# Outline: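 USP1/UAF1 complex (1 nM) preincubated 15 min at room temperature with compound, then Ub-Rho substrate (150 nM final) added. Kinetic fluorescence at 480/540 nm over 6 reads at 60 s intervals; 50 mM HEPES pH 7.8, 0.5 mM EDTA, 0.1 mg/ml BSA, 1 mM TCEP, 0.01% Tween-20.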
# Potency means the concentration at half of the fitted maximal effect.
row,SMILES,Potency
1,COc1cc(/C=C/C(=O)/C=C(O)/C=C/c2ccc(O)c(OC)c2)ccc1O,"inconclusive: 31.6 µM [inhibitor, partial curve, poor fit]"
2,CCOC(=O)C1=C(CN(CC)Cc2ccccc2)NC(=O)NC1c1ccc(OC)cc1 (centres undefined),"inconclusive: 25.1 µM [inhibitor, partial curve, poor fit]"
3,CC12CCC(C(NC(=S)NN)C1=O)C2(C)C (centres undefined),"inconclusive: 22.4 µM [inhibitor, partial curve]"
4,Cc1ccc(OC(=O)CSc2nnc(-c3ccc4c(c3)OCO4)o2)c(C)c1,"inconclusive: 0.178 µM [inhibitor, full curve, poor fit]"
5,COC(=O)c1ccc2c(c1)c(C#Cc1ccccc1)c(-c1ccccc1)n2C,"inconclusive: 39.8 µM [inhibitor, partial curve, poor fit]"
6,NC(=O)c1ccc(NC(=O)CSC(=O)c2ccccc2)cc1,inactive
7,Cc1ccccc1NC(=S)N/N=C/C(C)c1ccccc1 (centres undefined),"inconclusive: 44.7 µM [inhibitor, partial curve]"
8,CCC(C)/C(C)=N/Nc1ccc(S(N)(=O)=O)cc1[N+](=O)[O-] (centres undefined),"inconclusive: 5.62 µM [inhibitor, partial curve]"
9,CCOC(=O)c1sc(N2C(=O)C(O)=C(C(=O)c3ccco3)C2c2ccc(C)o2)nc1C (centres undefined),"inconclusive: 44.7 µM [inhibitor, partial curve]"
10,O=C(Nc1cccc(-c2ccc(N3CCCCC3)nn2)c1)c1ccc(Br)o1,"inconclusive: 0.708 µM [inhibitor, full curve]"
11,Cc1oc2ccc(OC(=O)c3cccs3)cc2c1C(=O)OC(C)C,"inconclusive: 44.7 µM [inhibitor, partial curve, poor fit]"
12,CCOc1cccc2sc(N(Cc3cccnc3)C(C)=O)nc12,"inconclusive: 3.55 µM [inhibitor, full curve]"
13,COC(=O)c1cc2c(=O)c3ccccc3oc2nc1/C=C/N(C)C,"inconclusive: 35.5 µM [inhibitor, partial curve]"
14,CCOc1ccc(N2CC(c3nc4ccccc4n3CCOc3ccc(OC)cc3)CC2=O)cc1 (centres undefined),"inconclusive: 1 µM [inhibitor, full curve, poor fit]"
15,CCOC(=O)C1CCN(c2cc3c(cc2NC(=O)c2ccccc2Cl)n(C)c(=O)n3C)CC1,"inconclusive: 0.631 µM [inhibitor, full curve]"
16,NC(=O)c1cc(N)ccc1N1CCCC1,"inconclusive: 35.5 µM [inhibitor, partial curve]"
17,COc1ccc(-c2nc3sc(CCNC(=O)C(C)(C)C)c(C)n3n2)cc1,"inconclusive: 0.251 µM [inhibitor, full curve, poor fit]"
18,CCOCCCNC(=O)c1ccc(-c2nc(CS(=O)(=O)c3ccccc3)c(C)o2)cc1,"inconclusive: 0.447 µM [inhibitor, full curve, poor fit]"
19,CCN(CC)CCCNC1=C(Cl)C(=O)c2ccccc2C1=O,"inconclusive: 25.1 µM [inhibitor, single point]"
20,O=C1OC(c2ccc3ccccc3c2O)(c2ccc3ccccc3c2O)c2ccccc21,"inconclusive: 20 µM [inhibitor, partial curve]"

row,SMILES,Potency
1,O=C(Nc1ccc(C(=O)O)cc1)/C(=C/c1ccc([N+](=O)[O-])cc1)NC(=O)c1ccccc1,"inconclusive: 0.282 µM [inhibitor, full curve, poor fit]"
2,Fc1ccc2[nH]c3c(N4CCc5ccccc5C4)ncnc3c2c1,inactive
3,COc1ccc(C(=O)c2c(C(F)(F)F)oc3c2C(=O)c2ccccc2C3=O)cc1,"inconclusive: 6.31 µM [inhibitor, partial curve]"
4,COc1cc(/C=C2\SC(=S)N(CC(=O)Nc3cccnc3)C2=O)cc(OC)c1OC,"inconclusive: 12.6 µM [inhibitor, partial curve]"
5,CCn1c(SCC(=O)NNC(=O)c2ccc(OC)cc2)nnc1-c1ccco1,inactive
6,Cc1ccc(-c2nc(CS(=O)(=O)CC(=O)NC(C)CCc3ccccc3)c(C)o2)cc1 (centres undefined),"inconclusive: 39.8 µM [inhibitor, single point]"
7,CC1=NN(c2ccc(S(=O)(=O)O)cc2C)C(=O)C1,"inconclusive: 28.2 µM [inhibitor, partial curve]"
8,Cc1cc(C)cc(NC(=S)NCc2ccc3[nH]c4c(c3c2)CCCC4)c1,inactive
9,CN(CC(=O)Nc1ccc2c(c1)OCCO2)CC(=O)Nc1ccc(F)c(F)c1F,"inconclusive: 7.94 µM [inhibitor, full curve, poor fit]"
10,CCC1(C)CN=C(c2ccccc2)NC1 (centres undefined),"inconclusive: 7.08 µM [inhibitor, partial curve, poor fit]"
11,Cc1ccc(S(=O)(=O)N(CC(=O)O)c2ccc(Cl)c(C(F)(F)F)c2)cc1,"inconclusive: 35.5 µM [inhibitor, single point]"
12,Cc1ccc(S(=O)(=O)N2[C@@H](c3ccc(Br)cc3)C(C(=O)O)=C[C@H]2CC2CCCC2)cc1,"inconclusive: 44.7 µM [inhibitor, partial curve, poor fit]"
13,O=S(=O)(Nc1nc2ccccc2nc1Nc1cccc(S(=O)(=O)N2CCCCC2)c1)c1ccccc1,"inconclusive: 31.6 µM [inhibitor, single point]"
14,Cc1ccc([N+](=O)[O-])cc1NC(=S)NC(=O)C(C)(C)C,"inconclusive: 22.4 µM [inhibitor, partial curve]"
15,O=C(OCc1ccc(-c2ccccc2)cc1)c1cccc(O)c1,"inconclusive: 0.355 µM [inhibitor, full curve, poor fit]"
16,COc1ccc(NC(=O)C2CCN(S(=O)(=O)c3cccc4nonc34)CC2)cc1OC,"inconclusive: 35.5 µM [inhibitor, partial curve]"
17,O=C(O)c1cccc(-c2ccc(/C=c3/sc4nc5ccccc5n4c3=O)o2)c1,"inconclusive: 20 µM [inhibitor, partial curve]"
18,CCOC1(OCC)OC(c2ccccc2)=C(C#N)C(C=Cc2ccccc2)C1(OCC)OCC (centres undefined),inactive
19,O=C(Nc1nnc(SCc2ccc(F)cc2)s1)C1Cc2ccccc2CN1C(=O)c1ccco1 (centres undefined),inactive

# 2 of the compounds above, bar-delimited:
row | SMILES | Potency
6 | Cc1ccc(-c2nc(CS(=O)(=O)CC(=O)NC(C)CCc3ccccc3)c(C)o2)cc1 (centres undefined) | inconclusive: 39.8 µM [inhibitor, single point]
7 | CC1=NN(c2ccc(S(=O)(=O)O)cc2C)C(=O)C1 | inconclusive: 28.2 µM [inhibitor, partial curve]
